From PubChem BioAssay AID2417 (National Center for Advancing Translational Sciences (NCATS), 2010)
In all, about 140,000 compounds went through this assay and about 4,300 (3.1%) were called active. The inconclusive results got no clear call from the source; some entries with a clear call stand among them for comparison.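 How the source made its calls: active means readout at or below -70, meaning at least 70% loss of cells showing the perinucleolar compartment, a nuclear body marking cancer cells; inconclusive means readout between -30 and a set limit; inactive means the rest.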

Experiment: High Content Assay for Compounds that inhibit the Assembly of the Perinucleolar Compartment;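 further: plate controls were DMSO wells for no effect and camptothecin positive control wells for full effect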
Settings: PC3M PTB-GFP, PNC prevalence imaging, 16 h; at 10 µM; active compounds read low
Procedure, shortened: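 Read-out is percentage of cells bearing a perinucleolar compartment, from automated 20x imaging of fixed, Hoechst-stained PC3M PTB-GFP cells. Cells were seeded 4 h, then exposed 16 h to compound (23 nl of library stock) in duplicate plates.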

| Compound | activity change (PNC), negative = inhibition |
| --- | --- |
| O=C1COc2ccc(-c3csc(NCC4CCCO4)n3)cc2N1 (stereo not given) | inactive: 13.1% |
| COC(=O)c1c(NC(=O)C2COc3ccccc3O2)sc2c1CCN(C(C)=O)C2 (stereo not given) | inconclusive: -33.6% |
| CC(=O)NCc1cc(-c2nn(C)c(=O)c3ccccc23)ccc1C | inconclusive: -41.6% |
| CCOCCn1c(C(C)C)nc2ccccc21 | inconclusive: -30.9% |
| Cn1c(=O)cc(SCC(=O)NCCC2=CCCCC2)c2ccccc21 | inactive: -20.3% |
| OC1CNCc2cc3c(cc21)OCCO3 (stereo not given) | inconclusive: -33% |
| COc1ccc(OC)c(NS(=O)(=O)c2cccs2)c1 | inconclusive: -46.9% |
| COc1cccc(C(=O)Nc2nnc(C(C)C)s2)c1 | inconclusive: -40.5% |
| COc1cc(C(=O)NC(=S)NNC(=O)c2cnccn2)cc(OC)c1OC | inactive: 5.39% |
| Cc1cccc(C)c1OCCn1nc(C(=O)O)c2ccccc2c1=O | inactive: 38.4% |
| CCCCNC(=O)NNC(=O)c1ccoc1C | inconclusive: -51% |
| CO/N=C/NC(=O)N1OC[C@@H]2COc3ccc4ccccc4c3[C@@H]21 | inactive: 7.08% |
| COc1ccc(OC)c(NC(=O)C2CC(=O)N(c3ccccc3)C2)c1 (stereo not given) | inconclusive: -59% |
| CCc1cccc(C)c1NC(=O)COC(=O)C(NS(=O)(=O)c1ccc(Cl)cc1)C(C)O (stereo not given) | inconclusive: -33.1% |
| CC(CC(C)C(=O)Nc1ccccc1C(C)(C)C)C(=O)O (stereo not given) | inactive: -15.6% |
| CC(C)CN(CC(C)C)C(=O)CCCC(=O)N(CC(C)C)CC(C)C | inconclusive: -42.8% |
| Cc1ccccc1C(OCCN(C(C)C)C(C)C)c1ccccc1 (stereo not given) | inactive: 1.05% |
| Cc1cccc(C(=O)Oc2csc(=S)n2C(=O)c2cccc(C)c2)c1 | inactive: -1.77% |
| COc1ccc(Oc2nc(SC)nc3ccccc23)cc1 | inactive: -28.2% |
| O=C(Nc1c2c(nc3ccccc13)CCCC2)c1ccccc1Cl | inactive: -27.6% |
| CCOC(=O)N1CCC(N2C(=O)c3ccccc3C2Nc2ccc(C)cc2)CC1 (stereo not given) | inactive: 42.7% |
| CCC(C)(C)n1nnnc1C(c1ccc(Cl)cc1)N1CCN(C)CC1 (stereo not given) | inconclusive: -38% |
| COc1cccc(C2CC(c3ccccc3Cl)n3nnnc3N2)c1 (stereo not given) | inconclusive: -71.9% |

In a second layout: results already given
Compound | activity change (PNC), negative = inhibition
COC(=O)c1c(NC(=O)C2COc3ccccc3O2)sc2c1CCN(C(C)=O)C2 (stereo not given) | inconclusive: -33.6%
CC(=O)NCc1cc(-c2nn(C)c(=O)c3ccccc23)ccc1C | inconclusive: -41.6%
CCOCCn1c(C(C)C)nc2ccccc21 | inconclusive: -30.9%
Cn1c(=O)cc(SCC(=O)NCCC2=CCCCC2)c2ccccc21 | inactive: -20.3%
OC1CNCc2cc3c(cc21)OCCO3 (stereo not given) | inconclusive: -33%
COc1ccc(OC)c(NS(=O)(=O)c2cccs2)c1 | inconclusive: -46.9%
COc1cccc(C(=O)Nc2nnc(C(C)C)s2)c1 | inconclusive: -40.5%
COc1cc(C(=O)NC(=S)NNC(=O)c2cnccn2)cc(OC)c1OC | inactive: 5.39%
Cc1cccc(C)c1OCCn1nc(C(=O)O)c2ccccc2c1=O | inactive: 38.4%
CCCCNC(=O)NNC(=O)c1ccoc1C | inconclusive: -51%
CO/N=C/NC(=O)N1OC[C@@H]2COc3ccc4ccccc4c3[C@@H]21 | inactive: 7.08%
COc1ccc(OC)c(NC(=O)C2CC(=O)N(c3ccccc3)C2)c1 (stereo not given) | inconclusive: -59%
CCc1cccc(C)c1NC(=O)COC(=O)C(NS(=O)(=O)c1ccc(Cl)cc1)C(C)O (stereo not given) | inconclusive: -33.1%
CC(CC(C)C(=O)Nc1ccccc1C(C)(C)C)C(=O)O (stereo not given) | inactive: -15.6%

Remaining list, next part.

| Compound | activity change (PNC), negative = inhibition |
| --- | --- |
| O=C(COC(=O)c1ccc[nH]c1=O)NC1CCCC1 | inconclusive: -47.5% |
| Cc1cc(C(=O)CN2C(=O)NC3(CCCCC3C)C2=O)c(C)n1Cc1cccs1 (stereo not given) | inactive: 19.4% |
| O=C(CCCN1C(=O)C2C3C=CC(C3)C2C1=O)N1CCN(c2ccccc2)CC1 (stereo not given) | active: -106% |
| Cc1ccc(C(=O)NCCn2cc(SCC(=O)Nc3cc(C)on3)c3ccccc32)cc1 | inconclusive: -56.1% |
| C=CCN1C(=O)C(C)(C)Nc2ccccc21 | inconclusive: -34.7% |
| O=c1[nH]c(=O)n(C2CCCCCC2)c(O)c1C=NCc1ccc(F)cc1 | inconclusive: -48.3% |
| Nc1nc(CSc2n[nH]c(-c3ccccc3)n2)nc(Nc2ccccc2)n1 | inactive: -4.67% |
| O=S(=O)(Nc1nc2ccccc2nc1Cl)c1ccccc1 | inconclusive: -63.2% |
| O=C(O)CCN1CCOCC1 | inactive: 31% |
| Cc1ccc(N2C(=O)CC3(CC4C=CC3C4)C2=O)cc1 (stereo not given) | inactive: 20% |
| CN(Cc1ccc(-n2cccn2)cc1)C(=O)c1cnn2c1NC(c1ccco1)CC2C(F)(F)F (stereo not given) | inactive: 7.86% |
| CCCCCC1CC(CC(=O)O)C(=O)O1 (stereo not given) | inactive: -12.6% |
| COc1ccccc1OCc1nc2ccccc2s1 | inconclusive: -31.1% |
| Cc1c(NS(=O)(=O)c2ccc3c(c2)OCCO3)cccc1-c1nc2cccnc2s1 | inconclusive: -67.8% |
| N#Cc1cccc(NC(=O)COC(=O)c2ccccc2Sc2ccccc2C#N)c1 | inconclusive: -36.7% |
| O=C(CSc1nnc(C2COc3ccccc3O2)o1)NC1CCCCC1 (stereo not given) | inconclusive: -36.6% |
| Cc1nc2cc(C(=O)O)ccc2n1C1CCCCC1 | active: -100% |
| CC1Cc2ccccc2N1C(=O)Cn1c(=O)oc2cc(S(=O)(=O)NC3CCCC3)ccc21 (stereo not given) | inconclusive: -32.9% |
| O=C(O)C1CCCCC1C(=O)Nc1ccccc1F (stereo not given) | inactive: 3.5% |
| COc1cc(NC(=O)c2cccc(COCC(F)(F)C(F)F)c2)cc(OC)c1OC | active: -99.9% |
| COc1ccc(NC(=O)CN(C2CCCCC2)S(C)(=O)=O)cc1OC | inconclusive: -75.1% |
| O=C(Cc1ccc(F)cc1)NC1CCCC1 | inconclusive: -31.8% |
